At least one compound was matched to its structure with a doubt left.
Legend:
Format in all cases: in vivo
[1] = system: weiblichen Mäusen eigener Zucht; assay: Antidiabetic effect: blood glucose lowering after subcutaneous glucose load (serum glucose, hexokinase method); conditions: Dose 0,3 mg/kg by gavage in 1,5% methylcellulose, 1 g/kg glucose s.c. 30 min later, blood taken a further 30 min later
[2] = system: weiblichen Mäusen eigener Zucht; assay: Anti-obesity effect a): increase of lipolysis measured as rise of serum glycerol (enzymatic-colorimetric test); conditions: Dose 0,3 mg/kg by gavage, same procedure as the blood glucose test
Mäusen = assay: Anti-obesity effect b): decrease of fat tissue measured as weight of ovarian fat tissue; conditions: Dose 1 mg/kg once daily by gavage in 1,5% methylcellulose; ovarian fat tissue weighed on the fifth day

SMILES | Blutzuckersenkungen, % Änderung vom Wert der Kontrollgruppe [1] | Anstieg des Glyzerins im Serum, % Änderung vom Wert der Kontrollgruppe [2] | Abnahme des Ovarfettgewebes, % Änderung vom Wert der Kontrollgruppe (Mäusen)
CC(Cc1ccc(OCC(=O)O)cc1)N1CCOC(c2cccc(Cl)n2)C1 (stereo not shown) [Beispiel 4, N-[2-(4-Carboxymethoxyphenyl)-1-methylethyl]-2-(6-chlor-pyridin-2-yl)-morpholin] | - 58% | + 221% | –
COC(=O)COc1ccc(CC(C)N2CCOC(c3cccc(Cl)n3)C2)cc1 (stereo not shown) [Beispiel 3, N-[2-(4-Carbomethoxymethoxyphenyl)-1-methylethyl]-2-(6-chlor-pyridin-2-yl)-morpholin] | - 50% | + 262% | –
CC(Cc1ccc(OCCO)cc1)N1CCOC(c2cccc(Cl)n2)C1 (stereo not shown) [Beispiel 5, N-[2-(4-(2-Hydroxyethoxy)-phenyl)-1-methylethyl]-2-(6-chlor-pyridin-2-yl)-morpholin] | – | – | - 41%
CC(Cc1ccc(OCCO)cc1)N1CCOC(c2cccc(Cl)n2)C1 (stereo not shown) [Beispiel 6, N-[2-(4-(2-Hydroxyethoxy)-phenyl)-1-methylethyl]-2-(6-chlor-pyridin-2-yl)-morpholin] | - 65% | + 314% | –

From patent EP0334146A1, “Morpholines and morpholine-N-oxides, medicines containing these compounds and process for their preparation” (Dr. Karl Thomae GmbH, priority 1988, dated 1989)
